According to the supplement of paper PMC6411743:
± gives the standard deviation of the averaged measurements. This is one part of the list.

Chains of the proteins cited; added tags and fusions are not shown. Lines headed by an entry give the natural chain unless they say otherwise; changes in a name come on top.
UniProt P08069, whole entry, looked up: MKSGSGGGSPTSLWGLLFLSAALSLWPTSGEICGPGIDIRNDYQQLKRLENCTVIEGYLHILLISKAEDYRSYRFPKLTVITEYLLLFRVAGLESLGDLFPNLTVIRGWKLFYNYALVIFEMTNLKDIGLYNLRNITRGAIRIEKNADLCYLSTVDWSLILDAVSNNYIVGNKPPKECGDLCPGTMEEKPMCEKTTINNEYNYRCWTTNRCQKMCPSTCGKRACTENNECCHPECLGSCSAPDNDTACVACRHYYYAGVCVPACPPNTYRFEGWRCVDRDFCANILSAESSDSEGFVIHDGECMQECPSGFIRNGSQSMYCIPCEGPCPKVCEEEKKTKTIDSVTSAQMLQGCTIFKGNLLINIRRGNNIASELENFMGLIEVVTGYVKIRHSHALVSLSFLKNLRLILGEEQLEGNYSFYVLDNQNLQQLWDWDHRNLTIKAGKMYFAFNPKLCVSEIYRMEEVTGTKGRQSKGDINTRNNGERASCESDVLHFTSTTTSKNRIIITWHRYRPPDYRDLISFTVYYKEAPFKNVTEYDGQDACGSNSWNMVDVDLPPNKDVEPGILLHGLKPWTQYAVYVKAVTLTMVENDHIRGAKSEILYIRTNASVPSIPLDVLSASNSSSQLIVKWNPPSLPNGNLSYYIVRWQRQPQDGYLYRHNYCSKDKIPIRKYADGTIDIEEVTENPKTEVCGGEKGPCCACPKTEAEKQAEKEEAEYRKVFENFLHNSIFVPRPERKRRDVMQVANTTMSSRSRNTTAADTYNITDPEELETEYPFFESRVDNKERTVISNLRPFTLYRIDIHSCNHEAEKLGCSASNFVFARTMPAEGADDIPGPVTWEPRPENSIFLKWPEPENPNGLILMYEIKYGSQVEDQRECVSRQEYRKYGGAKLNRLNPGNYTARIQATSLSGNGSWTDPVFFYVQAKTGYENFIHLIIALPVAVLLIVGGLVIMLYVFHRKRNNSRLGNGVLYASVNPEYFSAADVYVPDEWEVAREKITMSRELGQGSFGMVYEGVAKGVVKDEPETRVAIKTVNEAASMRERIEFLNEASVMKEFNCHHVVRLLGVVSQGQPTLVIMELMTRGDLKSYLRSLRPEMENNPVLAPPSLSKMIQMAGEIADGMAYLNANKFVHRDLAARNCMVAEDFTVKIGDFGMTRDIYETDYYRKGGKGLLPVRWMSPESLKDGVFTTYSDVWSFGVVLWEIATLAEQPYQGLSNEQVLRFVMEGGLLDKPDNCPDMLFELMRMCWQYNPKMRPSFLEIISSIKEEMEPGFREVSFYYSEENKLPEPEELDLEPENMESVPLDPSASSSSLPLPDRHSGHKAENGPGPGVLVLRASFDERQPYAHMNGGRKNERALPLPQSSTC
UniProt Q9P289: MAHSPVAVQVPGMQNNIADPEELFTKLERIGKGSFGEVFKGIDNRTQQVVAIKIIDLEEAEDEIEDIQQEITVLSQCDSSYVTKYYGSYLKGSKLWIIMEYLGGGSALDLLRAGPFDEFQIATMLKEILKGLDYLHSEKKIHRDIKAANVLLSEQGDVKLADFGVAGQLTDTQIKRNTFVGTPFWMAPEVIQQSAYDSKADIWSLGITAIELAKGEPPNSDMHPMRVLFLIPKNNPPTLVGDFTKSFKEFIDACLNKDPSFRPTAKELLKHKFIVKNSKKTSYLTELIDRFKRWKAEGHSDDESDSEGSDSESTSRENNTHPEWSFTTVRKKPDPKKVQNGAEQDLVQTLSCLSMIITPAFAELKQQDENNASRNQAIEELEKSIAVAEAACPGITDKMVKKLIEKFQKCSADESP
UniProt Q8NCN5: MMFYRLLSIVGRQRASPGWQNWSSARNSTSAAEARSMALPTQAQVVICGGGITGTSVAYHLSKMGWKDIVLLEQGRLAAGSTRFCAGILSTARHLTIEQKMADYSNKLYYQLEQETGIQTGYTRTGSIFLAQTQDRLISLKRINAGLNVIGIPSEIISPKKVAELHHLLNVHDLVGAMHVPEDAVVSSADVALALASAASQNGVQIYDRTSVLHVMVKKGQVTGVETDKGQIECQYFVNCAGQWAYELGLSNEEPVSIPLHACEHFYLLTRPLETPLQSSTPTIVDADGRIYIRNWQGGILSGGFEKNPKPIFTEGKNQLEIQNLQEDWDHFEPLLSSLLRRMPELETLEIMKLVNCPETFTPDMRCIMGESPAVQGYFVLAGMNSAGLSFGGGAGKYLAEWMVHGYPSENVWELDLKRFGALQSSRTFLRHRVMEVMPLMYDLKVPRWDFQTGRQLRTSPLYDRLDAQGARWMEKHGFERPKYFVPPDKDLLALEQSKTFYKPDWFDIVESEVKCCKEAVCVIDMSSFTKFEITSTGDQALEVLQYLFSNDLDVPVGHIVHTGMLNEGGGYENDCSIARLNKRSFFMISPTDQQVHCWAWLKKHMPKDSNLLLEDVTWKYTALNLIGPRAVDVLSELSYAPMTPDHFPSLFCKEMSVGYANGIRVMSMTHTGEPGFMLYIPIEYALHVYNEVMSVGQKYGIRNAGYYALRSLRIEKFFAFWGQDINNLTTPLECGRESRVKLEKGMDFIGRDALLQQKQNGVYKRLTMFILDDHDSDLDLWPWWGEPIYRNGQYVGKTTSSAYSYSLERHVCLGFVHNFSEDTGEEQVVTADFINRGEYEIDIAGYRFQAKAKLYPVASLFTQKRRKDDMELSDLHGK
UniProt Q99719: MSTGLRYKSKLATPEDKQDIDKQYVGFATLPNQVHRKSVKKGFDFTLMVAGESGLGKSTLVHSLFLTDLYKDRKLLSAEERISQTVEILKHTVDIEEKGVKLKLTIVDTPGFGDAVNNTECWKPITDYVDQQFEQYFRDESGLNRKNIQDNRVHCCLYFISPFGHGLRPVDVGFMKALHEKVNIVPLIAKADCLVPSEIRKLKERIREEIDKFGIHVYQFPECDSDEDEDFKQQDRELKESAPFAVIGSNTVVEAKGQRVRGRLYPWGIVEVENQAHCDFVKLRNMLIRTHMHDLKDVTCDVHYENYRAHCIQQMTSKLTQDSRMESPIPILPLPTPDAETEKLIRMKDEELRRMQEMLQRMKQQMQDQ
UniProt P31483: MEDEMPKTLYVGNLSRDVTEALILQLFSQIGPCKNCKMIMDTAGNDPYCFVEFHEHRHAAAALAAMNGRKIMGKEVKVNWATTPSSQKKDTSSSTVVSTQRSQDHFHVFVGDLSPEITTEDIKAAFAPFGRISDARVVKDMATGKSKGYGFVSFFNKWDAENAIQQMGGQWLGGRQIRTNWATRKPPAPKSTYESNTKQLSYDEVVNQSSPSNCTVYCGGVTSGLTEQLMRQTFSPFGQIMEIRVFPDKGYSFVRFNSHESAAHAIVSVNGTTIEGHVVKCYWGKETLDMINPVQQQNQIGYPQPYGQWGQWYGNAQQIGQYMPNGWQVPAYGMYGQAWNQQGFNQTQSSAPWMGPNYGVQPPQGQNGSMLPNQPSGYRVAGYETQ
UniProt Q9P0J0, whole entry, looked up: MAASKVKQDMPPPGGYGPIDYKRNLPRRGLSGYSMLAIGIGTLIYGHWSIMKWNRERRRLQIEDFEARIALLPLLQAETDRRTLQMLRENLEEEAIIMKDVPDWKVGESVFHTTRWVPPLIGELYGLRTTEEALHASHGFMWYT
UniProt Q8IZL8: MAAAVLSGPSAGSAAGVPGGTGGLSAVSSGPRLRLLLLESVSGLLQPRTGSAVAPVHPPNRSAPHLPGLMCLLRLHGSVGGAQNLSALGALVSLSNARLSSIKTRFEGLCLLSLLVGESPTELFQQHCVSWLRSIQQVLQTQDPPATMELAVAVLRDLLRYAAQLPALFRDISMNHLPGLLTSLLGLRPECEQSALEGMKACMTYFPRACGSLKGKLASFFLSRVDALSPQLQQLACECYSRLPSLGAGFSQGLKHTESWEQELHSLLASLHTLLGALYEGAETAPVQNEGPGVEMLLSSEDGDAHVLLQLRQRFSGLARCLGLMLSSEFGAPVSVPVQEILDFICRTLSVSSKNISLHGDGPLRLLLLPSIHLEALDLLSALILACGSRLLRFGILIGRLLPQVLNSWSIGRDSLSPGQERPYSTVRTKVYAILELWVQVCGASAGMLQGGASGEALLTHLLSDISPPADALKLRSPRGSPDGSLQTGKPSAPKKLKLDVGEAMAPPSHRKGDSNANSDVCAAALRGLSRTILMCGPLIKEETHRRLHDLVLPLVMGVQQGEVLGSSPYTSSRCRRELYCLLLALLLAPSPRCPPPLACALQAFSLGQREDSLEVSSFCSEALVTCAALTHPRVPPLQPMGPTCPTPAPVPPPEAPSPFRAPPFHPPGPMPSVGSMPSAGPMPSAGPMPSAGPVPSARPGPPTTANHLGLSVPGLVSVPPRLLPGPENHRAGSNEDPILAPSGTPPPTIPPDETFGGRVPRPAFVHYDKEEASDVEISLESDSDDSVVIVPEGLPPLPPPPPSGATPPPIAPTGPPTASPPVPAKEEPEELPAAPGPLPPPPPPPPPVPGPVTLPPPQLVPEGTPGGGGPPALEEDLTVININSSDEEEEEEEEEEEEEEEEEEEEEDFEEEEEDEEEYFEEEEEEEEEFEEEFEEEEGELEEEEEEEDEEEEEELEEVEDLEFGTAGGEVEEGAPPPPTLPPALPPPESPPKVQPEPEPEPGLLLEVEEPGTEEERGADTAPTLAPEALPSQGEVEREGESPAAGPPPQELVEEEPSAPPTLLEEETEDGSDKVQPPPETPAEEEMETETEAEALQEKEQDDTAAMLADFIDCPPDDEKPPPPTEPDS
UniProt P55212: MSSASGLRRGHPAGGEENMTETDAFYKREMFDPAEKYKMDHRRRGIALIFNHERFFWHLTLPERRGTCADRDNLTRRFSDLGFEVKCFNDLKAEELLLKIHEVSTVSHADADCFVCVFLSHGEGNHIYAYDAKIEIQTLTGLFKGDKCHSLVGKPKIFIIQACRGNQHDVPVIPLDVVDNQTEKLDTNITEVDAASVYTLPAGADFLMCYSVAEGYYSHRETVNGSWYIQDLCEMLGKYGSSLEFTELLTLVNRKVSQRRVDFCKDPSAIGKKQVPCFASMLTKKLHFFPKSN
UniProt O95394: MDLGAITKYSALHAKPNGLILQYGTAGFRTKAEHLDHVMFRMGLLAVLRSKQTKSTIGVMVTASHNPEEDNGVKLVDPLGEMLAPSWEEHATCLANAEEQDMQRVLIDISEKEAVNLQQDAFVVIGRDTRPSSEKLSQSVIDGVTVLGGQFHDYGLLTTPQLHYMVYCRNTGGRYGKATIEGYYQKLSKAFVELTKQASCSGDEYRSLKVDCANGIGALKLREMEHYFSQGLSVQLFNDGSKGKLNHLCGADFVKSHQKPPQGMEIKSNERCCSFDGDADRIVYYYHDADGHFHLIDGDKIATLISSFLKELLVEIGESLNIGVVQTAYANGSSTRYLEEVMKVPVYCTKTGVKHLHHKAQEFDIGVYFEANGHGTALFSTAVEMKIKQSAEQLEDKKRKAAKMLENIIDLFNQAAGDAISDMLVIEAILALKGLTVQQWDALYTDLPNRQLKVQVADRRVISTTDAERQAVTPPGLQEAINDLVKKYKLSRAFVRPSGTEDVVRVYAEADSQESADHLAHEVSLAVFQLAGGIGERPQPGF
UniProt P55854, whole entry: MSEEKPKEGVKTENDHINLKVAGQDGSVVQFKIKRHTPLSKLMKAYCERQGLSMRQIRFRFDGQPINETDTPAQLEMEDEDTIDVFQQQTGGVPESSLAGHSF
UniProt Q96GF1: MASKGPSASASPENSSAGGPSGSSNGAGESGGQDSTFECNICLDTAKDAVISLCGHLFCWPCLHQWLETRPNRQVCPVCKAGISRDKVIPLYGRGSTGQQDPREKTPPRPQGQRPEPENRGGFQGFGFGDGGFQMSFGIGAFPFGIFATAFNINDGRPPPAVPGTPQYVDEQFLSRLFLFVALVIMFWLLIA
UniProt Q9UM22: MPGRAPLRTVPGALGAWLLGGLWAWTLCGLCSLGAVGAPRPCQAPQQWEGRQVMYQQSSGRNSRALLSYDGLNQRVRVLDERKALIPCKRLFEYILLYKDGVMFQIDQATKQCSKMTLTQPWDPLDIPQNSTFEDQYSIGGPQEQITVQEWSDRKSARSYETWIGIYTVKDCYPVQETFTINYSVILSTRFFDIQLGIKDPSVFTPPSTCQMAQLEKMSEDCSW
UniProt O94905: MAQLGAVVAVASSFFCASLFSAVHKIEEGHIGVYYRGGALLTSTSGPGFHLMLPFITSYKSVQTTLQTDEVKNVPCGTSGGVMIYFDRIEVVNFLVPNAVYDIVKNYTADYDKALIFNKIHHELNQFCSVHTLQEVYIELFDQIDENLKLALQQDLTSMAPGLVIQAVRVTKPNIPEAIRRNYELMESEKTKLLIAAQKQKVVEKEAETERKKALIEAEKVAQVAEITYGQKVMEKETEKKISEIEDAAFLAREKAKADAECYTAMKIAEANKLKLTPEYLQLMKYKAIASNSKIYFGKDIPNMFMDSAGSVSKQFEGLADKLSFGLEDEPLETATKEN

Compound: Nc1nc2c(ncn2[C@@H]2O[C@H](COP(=O)(O)OP(=O)(O)OP(=O)(O)O)[C@@H](O)[C@H]2O)c(=O)[nH]1 [guanosine triphosphate]
Assay: NP40-soluble protein abundance relative to vehicle (solubility fold change) (ratio); higher = more soluble protein in presence of GTP
Method in brief: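 Each value is a fold change relative to the detergent-processed vehicle, calculated per replicate from vsn-normalised intensities. Jurkat crude lysate received eight concentrations (0.1 to 10 mM) for 10 min at room temperature and 3 min at 37 °C, then was solubilised in 0.8% NP40 with benzonase (60 min, 4 °C). The ultracentrifuged supernatant was TMT-labelled and run by LC-MS/MS in three independent experiments.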

Row | Target | NP40-soluble protein abundance (concentration: 0.1mM) | NP40-soluble protein abundance (concentration: 0.5mM) | NP40-soluble protein abundance (concentration: 1mM) | NP40-soluble protein abundance (concentration: 2mM) | NP40-soluble protein abundance (concentration: 4mM) | NP40-soluble protein abundance (concentration: 6mM) | NP40-soluble protein abundance (concentration: 8mM) | NP40-soluble protein abundance (concentration: 10mM)
1 | C9J5X1 and related entries (UniProt P08069) | 1.04 ± 0.13 | 1.04 ± 0.13 | 1.15 ± 0.11 | 0.987 ± 0.07 | 1 ± 0.086 | 1.05 ± 0.1 | 1.07 ± 0.14 | 1.04 ± 0.2
2 | B4DGU4 and related entries (UniProt P35222) | 1.04 ± 0.087 | 0.98 ± 0.087 | 1.06 ± 0.032 | 1.01 ± 0.066 | 1.03 ± 0.095 | 1 ± 0.098 | 1.03 ± 0.058 | 0.949 ± 0.1
3 | A6NJD9 and related entries (UniProt Q16540) | 1.06 ± 0.1 | 1.11 ± 0.23 | 1.28 ± 0.22 | 1.29 ± 0.31 | 1.36 ± 0.41 | 1.14 ± 0.35 | 1.19 ± 0.32 | 1.2 ± 0.37
4 | B4E0Y9 and related entries (UniProt Q9P289) | 0.959 ± 0.021 | 0.959 ± 0.021 | 0.953 ± 0.052 | 0.937 ± 0.074 | 0.931 ± 0.046 | 0.946 ± 0.028 | 0.95 ± 0.033 | 0.942 ± 0.071
5 | B1AH77 and related entries (UniProt P15153) | 0.997 ± 0.028 | 0.983 ± 0.046 | 0.924 ± 0.015 | 0.866 ± 0.02 | 0.847 ± 0.059 | 0.879 ± 0.051 | 0.837 ± 0.052 | 0.822 ± 0.061
6 | A8MT40 and related entries (UniProt Q8NCN5) | 1.03 ± 0.061 | 1.08 ± 0.075 | 0.931 ± 0.023 | 0.975 ± 0.12 | 0.901 ± 0.058 | 0.915 ± 0.082 | 0.848 ± 0.04 | 0.891 ± 0.067
7 | B5MCT9 and related entries (UniProt Q6ZWJ1) | 0.973 ± 0.074 | 0.948 ± 0.048 | 0.999 ± 0.06 | 0.97 ± 0.066 | 0.959 ± 0.13 | 0.979 ± 0.074 | 0.954 ± 0.099 | 0.956 ± 0.089
8 | B4DJ62 and related entries (UniProt Q99719) | 1.08 ± 0.025 | 1.13 ± 0.049 | 1.09 ± 0.061 | 1.13 ± 0.017 | 1.089 ± 0.0024 | 1.04 ± 0.053 | 1.09 ± 0.026 | 1.04 ± 0.061
9 | C9JTN7 and related entries (UniProt P31483) | 0.993 ± 0.029 | 1 ± 0.021 | 0.983 ± 0.022 | 0.904 ± 0.021 | 0.899 ± 0.053 | 0.918 ± 0.064 | 0.9088 ± 0.0039 | 0.879 ± 0.036
10 | B4DEZ3 and related entries (UniProt Q9P0J0+K7EJE1+E7ENQ6+B4DEZ3) | 1.05 ± 0.15 | 0.942 ± 0.16 | 0.999 ± 0.13 | 1.12 ± 0.23 | 1.11 ± 0.17 | 1.06 ± 0.21 | 0.938 ± 0.1 | 1.01 ± 0.19
11 | C9JFV4 and related entries (UniProt Q8IZL8) | 1.03 ± 0.081 | 1.02 ± 0.023 | 1.09 ± 0.021 | 1.22 ± 0.098 | 1.24 ± 0.13 | 1.19 ± 0.1 | 1.28 ± 0.18 | 1.35 ± 0.15
12 | C5orf51 (UniProt A6NDU8) | 0.989 ± 0.035 | 0.968 ± 0.074 | 0.98 ± 0.11 | 0.972 ± 0.052 | 0.989 ± 0.059 | 0.887 ± 0.058 | 0.9228 ± 0.0087 | 0.984 ± 0.033
13 | D6RHU3 and related entries (UniProt P55212) | 1.05 ± 0.056 | 1.01 ± 0.045 | 0.92 ± 0.011 | 0.885 ± 0.081 | 0.886 ± 0.07 | 0.886 ± 0.06 | 0.853 ± 0.054 | 0.804 ± 0.084
14 | D6RCQ8 and related entries (UniProt O95394) | 0.9851 ± 0.0075 | 1.01 ± 0.035 | 0.958 ± 0.044 | 0.945 ± 0.026 | 0.936 ± 0.074 | 0.916 ± 0.025 | 0.884 ± 0.03 | 0.873 ± 0.051
15 | D6RDG4 and related entries (UniProt Q8NA72) | 0.974 ± 0.054 | 0.96 ± 0.046 | 1.045 ± 0.007 | 0.9759 ± 0.00021 | 0.95 ± 0.048 | 1.014 ± 0.0089 | 0.981 ± 0.017 | 0.9663 ± 0.0092
16 | A8MU27 and related entries (UniProt P55854) | 0.988 ± 0.035 | 0.957 ± 0.023 | 1.1 ± 0.06 | 0.983 ± 0.015 | 0.987 ± 0.024 | 1.07 ± 0.032 | 1.09 ± 0.053 | 1.12 ± 0.057
17 | C9JCW7 and related entries (UniProt Q9BVT8) | 0.979 ± 0.088 | 0.895 ± 0.089 | 1.01 ± 0.1 | 0.968 ± 0.11 | 0.931 ± 0.065 | 0.983 ± 0.12 | 0.942 ± 0.055 | 0.932 ± 0.083
18 | C9J931 and related entries (UniProt Q15382) | 1.06 ± 0.049 | 0.983 ± 0.07 | 0.955 ± 0.063 | 0.92 ± 0.065 | 0.91 ± 0.077 | 0.912 ± 0.092 | 0.915 ± 0.059 | 0.865 ± 0.07
19 | C9J3F5 and related entries (UniProt O95772) | 1.03 ± 0.13 | 0.967 ± 0.087 | 0.974 ± 0.034 | 1.02 ± 0.13 | 0.969 ± 0.073 | 1.03 ± 0.18 | 0.933 ± 0.064 | 0.896 ± 0.082
20 | C9JNE2 and related entries (UniProt Q9Y530) | 0.9849 ± 0.0069 | 0.9232 ± 0.0085 | 0.95 ± 0.058 | 0.943 ± 0.056 | 0.969 ± 0.084 | 0.921 ± 0.08 | 0.902 ± 0.076 | 0.913 ± 0.083
21 | A9X3U0 and related entries (UniProt Q96GF1) | 0.958 ± 0.13 | 0.957 ± 0.1 | 0.967 ± 0.091 | 0.951 ± 0.087 | 1.02 ± 0.083 | 0.974 ± 0.037 | 0.973 ± 0.022 | 1.03 ± 0.054
22 | D6RIH7 and related entries (UniProt Q9UM22) | 0.918 ± 0.11 | 0.931 ± 0.14 | 0.91 ± 0.12 | 0.896 ± 0.13 | 0.902 ± 0.12 | 0.908 ± 0.13 | 0.88 ± 0.085 | 0.889 ± 0.11
23 | E5RHW4 and related entries (UniProt O94905) | 1.01 ± 0.051 | 1.1 ± 0.085 | 1.13 ± 0.12 | 1.22 ± 0.16 | 1.29 ± 0.22 | 1.3 ± 0.25 | 1.3 ± 0.29 | 1.3 ± 0.32

2 records drawn at random from those above:
Row | Target | NP40-soluble protein abundance (concentration: 0.1mM) | NP40-soluble protein abundance (concentration: 0.5mM) | NP40-soluble protein abundance (concentration: 1mM) | NP40-soluble protein abundance (concentration: 2mM) | NP40-soluble protein abundance (concentration: 4mM) | NP40-soluble protein abundance (concentration: 6mM) | NP40-soluble protein abundance (concentration: 8mM) | NP40-soluble protein abundance (concentration: 10mM)
11 | C9JFV4 and related entries (UniProt Q8IZL8) | 1.03 ± 0.081 | 1.02 ± 0.023 | 1.09 ± 0.021 | 1.22 ± 0.098 | 1.24 ± 0.13 | 1.19 ± 0.1 | 1.28 ± 0.18 | 1.35 ± 0.15
21 | A9X3U0 and related entries (UniProt Q96GF1) | 0.958 ± 0.13 | 0.957 ± 0.1 | 0.967 ± 0.091 | 0.951 ± 0.087 | 1.02 ± 0.083 | 0.974 ± 0.037 | 0.973 ± 0.022 | 1.03 ± 0.054
